Assay results: PubChem BioAssay AID590 (National Center for Advancing Translational Sciences (NCATS), 2007)
Where “and” joins values, the source holds several entries; their conditions need not be identical. Identical values can stand only once. About 6,500 (11%) of roughly 59,000 compounds were called active. Inconclusive results, whose numbers are uncertain, are shown with a selection of clear calls. No stated cut-off is given here; in the data, active means max dye-equivalent concentration above about 10 nM; inconclusive means mostly about 1.1 nM to 9.6 nM; inactive means weaker than that.

Experiment: qHTS Assay for Spectroscopic Profiling in A350 Spectral Region
Conditions: Compound autofluorescence, 340/450 nm, Alexa 350 dye-equivalents; active compounds read high

| SMILES | max dye-equivalent concentration |
| --- | --- |
| Cn1cnnc1SCc1ccc(C#N)cc1 | inconclusive: 6.3e-09 M |
| CC(C)NC(=O)c1ccccc1NC(=O)CCS(=O)(=O)Cc1ccccc1 | inconclusive: 1.2e-09 M |
| CN(C)c1ccc2c(O)cc(=O)n(C)c2c1 | active: 1.1e-07 M |
| CS(=O)(=O)N(CC(=O)NCCC1=CCCCC1)c1ccc2c(c1)OCO2 | inconclusive: 2.9e-09 M |
| Clc1ccc(-c2nnc3ccccn23)cc1 | inactive |
| C=CCn1c(SCc2nc3ccccc3c(=O)[nH]2)nnc1-c1cc2cc(Cl)ccc2o1 | inactive |
| COCCn1nnnc1CN(Cc1cc2cc(OC)c(OC)cc2[nH]c1=O)C1CCCC1 | active: 1.4e-07 M |
| CC(C)CCOCC(=O)Nc1cccc(C(=O)O)c1 | inactive |
| CCC(Sc1ncccc1C(=O)OCCN1CCCC1=O)C(=O)NCc1ccco1 (stereo not given) | active: 1.9e-08 M |
| CCCCc1nc2sc3c(c2c(=O)[nH]1)CCC3 | inconclusive: 3.7e-09 M |
| O=C(CN1CCN(c2ccccn2)CC1)NC1CCCC1 | inactive |
| Cc1cccc(OCc2nnc(SCC(=O)N3CCCC3)n2C)c1 | inactive |
| Cn1c(=O)c2c(nc(CN3CCN(C(=O)c4ccco4)CC3)n2Cc2ccc(F)cc2)n(C)c1=O | active: 6.3e-08 M |
| CC(=O)Oc1ccc2c(C)c(CC(C)O)c(=O)oc2c1 (stereo not given) | active: 2.1e-05 M |
| Cc1ccc(SCCNC(=O)CN2C(=O)c3ccccc3S2(=O)=O)cc1 | inconclusive: 1.5e-09 M |
| CCC(=O)n1nc(-c2ccco2)nc1SCc1ccccc1 | inconclusive: 1.1e-09 M |
| C=CCN1C(=CCO)[C@H]2C[C@H]3[C@@H]1CC[C@@]31c3ccccc3N3C=C4[C@@H]5N(/C=C/2[C@H]31)c1ccccc1[C@]51CC[C@H]2[C@H]1C[C@@H]4/C(=C/CO)N2CC=C | inactive |
| O=C(COC(=O)c1cc(-c2cccs2)nc2ccccc12)NCc1ccco1 | active: 2.3e-07 M |
| Cc1ccc(C(C)C)c(OCc2ccc(-c3nnco3)cc2)c1 | active: 2.8e-08 M |
| CCOC(=O)C1=C(C)OC(N)=C(C#N)C1c1cc(OC)c2c(c1)OCO2 (stereo not given) | inconclusive: 9.6e-09 M |
| CN1CCN(c2ncc3nc(-c4cccc(C#N)c4)c(=O)n(CCC#N)c3n2)CC1 | active: 1.5e-07 M |
| COc1ccc(-c2ccc(N)[n+](CCCC(=O)O)n2)cc1 | inconclusive: 1.1e-09 M |
| O=C(CSc1ncccn1)NC(=O)NCc1ccccc1 | inconclusive: 2.4e-09 M |

| SMILES | max dye-equivalent concentration |
| --- | --- |
| COC(=O)C1=C(C)OC(N)=C(C#N)C1c1cc(OC)ccc1OC (stereo not given) | inconclusive: 2.1e-09 M |
| COc1ccc(/C(O)=C2/C(=O)C(=O)N(c3nc(C)c(C)s3)C2c2ccco2)cc1 (stereo not given) | inconclusive: 4e-09 M |
| COc1ccc(Nc2oc(COc3cccc(C)c3)nc2C#N)cc1 | inactive |
| O=C1NCCCC2c3cc(O)c4ccccc4c3OC12N1CCCCC1 (stereo not given) | inconclusive: 6.9e-09 M |
| CCCCc1nc2n[nH]c(N)c2c2c1CCC2 | inactive |
| O=C(Oc1ccccc1)N1CCC[C@@]2(CCN(c3ncccn3)C2)C1 | inactive |
| CCOC(=O)N1CCC(N(CCCOC)C(=O)Nc2cccc(OC)c2)CC1 | active: 1.9e-08 M |
| CN1CCN(S(=O)(=O)c2cccc(S(=O)(=O)c3ccc(Cl)cc3)c2)CC1 | inconclusive: 1.2e-09 M |
| O=c1c(Cc2ccccc2)c(O)nc2n1CCS2 | inconclusive: 1.8e-09 M |
| Cc1ccc(-c2nnn(CC(=O)N(CC(=O)NC3CCCC3)c3cnc4ccccc4c3)n2)o1 | inconclusive: 1.8e-09 M |
| c1ccc(-c2nc(-n3ccnc3)nc(-n3ccnc3)n2)cc1 | inactive |
| CCS(=O)(=O)n1nc(-c2ccccc2)nc1SCc1ccccc1 | inactive |
| Clc1ccc2nc(CSc3nc4ccccc4o3)cn2c1 | inactive |
| COc1ccc(-c2c(=O)n(OCc3ccccn3)c3ccccc3[n+]2[O-])cc1OC | inactive |
| CC1(C)CC(=O)C(C=Nc2ccc(O)cc2)=C(O)C1 | inconclusive: 1.5e-09 M |
| Cn1c(CN2CCCC2)nc2cc(NC(=O)Nc3ccccc3)ccc21 | inconclusive: 1.9e-09 M |
| Cc1cc(NC(=O)CSc2nc(-c3cccs3)cc(C(F)(F)F)n2)no1 | active: 9.2e-08 M |
| Cc1ccnc(N2CCN(c3c4c(c(C#N)c5nc6ccccc6n35)CCC4)CC2)c1 | inconclusive: 4e-09 M |
| CC(CCc1ccccc1)NC(=O)c1ccc(Br)o1 (stereo not given) | inconclusive: 2.8e-09 M |
| COC(=O)c1cc(C(=O)OC)cc(N2C(=O)CC(Sc3nc(C)cc(C)n3)C2=O)c1 (stereo not given) | inconclusive: 8e-09 M |
| CS(=O)(=O)Nc1cccc(-c2ccc3ncnc(Nc4ccc(F)cc4)c3c2)c1 | inactive |
| CC(=O)c1cc(OC(=O)c2ccncc2)ccc1OC(=O)c1ccncc1 | inactive |
| COc1ccccc1S(=O)(=O)n1cc(Cc2ccccc2)c(N)n1 | inconclusive: 4.1e-09 M |

| SMILES | max dye-equivalent concentration |
| --- | --- |
| COc1ccc2[nH]c(C)c(CN3CCCCC3)c(=O)c2c1 | active: 1.1e-08 M |
| Cc1ccn2cc(-c3nonc3C)cc2c1 | inconclusive: 3.2e-09 M |
| Cc1cc(=O)[nH]c(Nc2ccc(C(=O)OC(C)C)cc2)n1 | inactive |
| Cc1ccc(-c2cc(C(=O)N3CCN(c4ncccn4)CC3)c3ccccc3n2)cc1 | inconclusive: 3.6e-09 M |
| O=C(Cn1c(=O)[nH]c2ccsc2c1=O)NC1CCCCCC1 | inconclusive: 2.5e-09 M |
| COc1ccccc1-c1nc(NCc2cnc(C)cn2)c2ccccc2n1 | inactive |
| Cc1c(C(=O)Nc2ccccc2)oc2c1C(=O)CC(C)(C)C2 | inconclusive: 1.7e-09 M |
| CCN(Cc1ccccc1)C(=O)Cn1cnc2c1c(=O)n(C)c(=O)n2C | inconclusive: 3.9e-09 M |
| CCOc1ccccc1-c1nc(-c2cc3ccccc3nc2OC)no1 | active: 1.2e-08 M |
| O=C(NCc1ccco1)c1cnn2c(C(F)(F)F)cc(-c3ccco3)nc12 | active: 3e-07 M |
| Oc1ccc(/C=C\c2cc(O)cc(O)c2)cc1 | inconclusive: 6.6e-09 M and inconclusive: 1.2e-09 M |
| COc1cc(CNc2ccc3[nH]c(=O)[nH]c3c2)ccc1OCC(=O)NC(C)(C)C | inconclusive: 3.5e-09 M |
| Cc1ccccc1NC(=O)CSc1nc2c(c(-c3ccco3)c1C#N)CCCC2 | inconclusive: 5.2e-09 M |
| O=C(CSc1nnc(CNC(=O)c2ccccc2F)o1)NCC1CCCO1 (stereo not given) | inconclusive: 1.1e-09 M |
| Cn1c(NCCCN2CCOCC2)nc2c1c(=O)n(Cc1ccc(Cl)cc1)c(=O)n2C | inconclusive: 3.4e-09 M |
| Cc1noc(C)c1S(=O)(=O)Nc1ccc(C(=O)N2CCc3ccccc3C2)cc1 | inactive |
| CCOC(=O)c1cc2c(=O)n3ccccc3nc2n(CCOC)c1=NC(=O)C(C)(C)C | active: 1.4e-06 M |
| O=C(O)/C=C\C(=O)N1Cc2cc3ccccc3nc2C1 | inconclusive: 2e-09 M |
| O=C(CN1C(=O)CCS(=O)(=O)c2ccccc21)Nc1cccc(F)c1 | inconclusive: 2.5e-09 M |
| c1ccc2c(c1)Cn1c-2nc2ccccc21 | inconclusive: 9.8e-09 M |
| Cc1noc(C)c1C(=O)N1CCC[C@@]2(CCN(Cc3cc(C(F)(F)F)cc(C(F)(F)F)c3)C2)C1 | inactive |
| CCCCCOC(=O)Cn1c(N2CCOCC2)nc2c1c(=O)[nH]c(=O)n2C | inconclusive: 1.3e-09 M |
| O=C(Nc1ccc(S(=O)(=O)NCc2ccco2)cc1)c1ccc2ccccc2n1 | inconclusive: 1.4e-09 M |

| SMILES | max dye-equivalent concentration |
| --- | --- |
| CCCc1cc(=O)[nH]c(Nc2cc(OC)ccc2OC)n1 | inconclusive: 1.9e-09 M |
| CN1CCC(=C2c3ccccc3C=Cc3ccccc32)CC1 | inconclusive: 5.2e-09 M |
| O=C(O)CCSCC(=O)Nc1c(C(=O)C2CC2)oc2ccccc12 | inconclusive: 3.2e-09 M |
| COCCN(CCOC)S(=O)(=O)c1ccc(C(=O)Nc2nc(-c3ccncc3)cs2)cc1 | inconclusive: 1.1e-09 M |
| Cn1c(NC(=O)c2ccc(Br)o2)cc(=O)n(C)c1=O | inconclusive: 2.3e-09 M |
| Cc1sc2ncnc(Sc3nnnn3-c3ccc(Cl)cc3)c2c1C | inconclusive: 3.8e-09 M |
| Cc1n[nH]c(C)c1S(=O)(=O)N1CCC(C(=O)O)CC1 | inconclusive: 2e-09 M |
| COc1ccc(C2NC3=C(CCC3)C3(C#N)C4(N=C(N)C23C#N)OCCO4)cc1 (stereo not given) | active: 1.1e-08 M |
| CCCCN1CCc2c([nH]c3c(C)cccc23)C1=O | inconclusive: 1.2e-09 M |
| O=C(Cn1nnc(-c2ccccc2NC(=O)c2ccco2)n1)Nc1ccccc1 | inactive |
| CCOC(=O)C1=C(C)OC(N)=C(C#N)C1c1ccsc1 (stereo not given) | inconclusive: 4.6e-09 M |
| Cc1cc(C)nc(-n2nc(C)cc2NC(=O)CN2CCC(C)CC2)n1 | inactive |
| COc1ccc2nc(SCC(=O)O)nc(C)c2c1 | active: 6e-07 M |
| O=C(NCc1cccnc1)c1ccc(CS(=O)(=O)c2ccc(Cl)cc2)o1 | inconclusive: 2.6e-09 M |
| COc1cc(=O)n(C)c2cc(N(C)C)ccc12 | active: 2.4e-06 M |
| Oc1ccccc1C(Sc1nc2ccccc2s1)Sc1nc2ccccc2s1 | inactive |
| CN1CCN(c2ncc3nc(-c4cccs4)c(=O)n(C[C@H]4CCCO4)c3n2)CC1 | active: 4.2e-08 M |
| CCC(C)NC(=O)CSc1nc2ccccc2c(=O)n1CCCC(=O)NCC1CCCO1 (stereo not given) | inactive |
| CCNc1nc(N)nc(Oc2ccc(OCC)nn2)n1 | inactive |
| CC(=O)Nc1cccc2c1C(=O)NC2=O | active: 4.4e-07 M |
| COc1ccc(-n2c(=O)c(-c3ccccc3)nc3cnc(N4CCNCC4)nc32)cc1 | inconclusive: 4.7e-09 M |
